Reference: the supplement of paper PMC10849652
The other results are listed elsewhere or left out.

Chains of the proteins cited; added tags and fusions are not shown. Lines headed by an entry give the natural chain unless they say otherwise; changes in a name come on top.
UniProt P13693: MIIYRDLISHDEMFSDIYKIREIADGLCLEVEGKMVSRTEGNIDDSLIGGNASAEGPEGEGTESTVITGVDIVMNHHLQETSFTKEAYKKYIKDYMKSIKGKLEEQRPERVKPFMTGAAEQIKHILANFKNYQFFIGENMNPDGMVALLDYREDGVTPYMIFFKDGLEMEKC
UniProt P06753, whole entry, looked up: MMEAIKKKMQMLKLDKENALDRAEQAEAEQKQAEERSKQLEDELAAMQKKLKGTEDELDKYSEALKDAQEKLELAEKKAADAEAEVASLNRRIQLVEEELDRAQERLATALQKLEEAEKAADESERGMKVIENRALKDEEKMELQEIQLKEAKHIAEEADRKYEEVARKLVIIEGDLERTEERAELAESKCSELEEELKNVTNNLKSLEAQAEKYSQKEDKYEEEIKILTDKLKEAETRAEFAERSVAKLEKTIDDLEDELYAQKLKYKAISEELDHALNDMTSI
UniProt Q9H497: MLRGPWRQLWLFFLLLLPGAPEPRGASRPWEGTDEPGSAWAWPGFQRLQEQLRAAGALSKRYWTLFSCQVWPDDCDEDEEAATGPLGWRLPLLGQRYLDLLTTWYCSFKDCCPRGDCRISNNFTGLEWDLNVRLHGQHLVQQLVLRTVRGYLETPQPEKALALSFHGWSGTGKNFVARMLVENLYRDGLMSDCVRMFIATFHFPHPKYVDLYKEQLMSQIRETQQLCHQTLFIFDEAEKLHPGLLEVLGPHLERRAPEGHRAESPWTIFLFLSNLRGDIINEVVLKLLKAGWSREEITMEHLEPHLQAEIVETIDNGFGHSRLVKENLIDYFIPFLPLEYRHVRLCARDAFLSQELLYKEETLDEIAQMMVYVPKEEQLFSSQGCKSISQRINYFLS
UniProt Q9Y3Q8: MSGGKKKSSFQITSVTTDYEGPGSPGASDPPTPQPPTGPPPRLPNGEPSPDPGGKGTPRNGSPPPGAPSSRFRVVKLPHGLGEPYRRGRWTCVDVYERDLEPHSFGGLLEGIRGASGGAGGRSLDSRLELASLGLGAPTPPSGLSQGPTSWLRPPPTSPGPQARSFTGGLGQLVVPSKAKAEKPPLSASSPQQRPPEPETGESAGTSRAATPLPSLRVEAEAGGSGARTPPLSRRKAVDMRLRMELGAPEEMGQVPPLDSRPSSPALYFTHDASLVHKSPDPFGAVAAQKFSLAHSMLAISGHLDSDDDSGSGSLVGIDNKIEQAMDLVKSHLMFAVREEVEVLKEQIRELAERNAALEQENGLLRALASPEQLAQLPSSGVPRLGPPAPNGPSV
UniProt Q14258, whole entry, looked up: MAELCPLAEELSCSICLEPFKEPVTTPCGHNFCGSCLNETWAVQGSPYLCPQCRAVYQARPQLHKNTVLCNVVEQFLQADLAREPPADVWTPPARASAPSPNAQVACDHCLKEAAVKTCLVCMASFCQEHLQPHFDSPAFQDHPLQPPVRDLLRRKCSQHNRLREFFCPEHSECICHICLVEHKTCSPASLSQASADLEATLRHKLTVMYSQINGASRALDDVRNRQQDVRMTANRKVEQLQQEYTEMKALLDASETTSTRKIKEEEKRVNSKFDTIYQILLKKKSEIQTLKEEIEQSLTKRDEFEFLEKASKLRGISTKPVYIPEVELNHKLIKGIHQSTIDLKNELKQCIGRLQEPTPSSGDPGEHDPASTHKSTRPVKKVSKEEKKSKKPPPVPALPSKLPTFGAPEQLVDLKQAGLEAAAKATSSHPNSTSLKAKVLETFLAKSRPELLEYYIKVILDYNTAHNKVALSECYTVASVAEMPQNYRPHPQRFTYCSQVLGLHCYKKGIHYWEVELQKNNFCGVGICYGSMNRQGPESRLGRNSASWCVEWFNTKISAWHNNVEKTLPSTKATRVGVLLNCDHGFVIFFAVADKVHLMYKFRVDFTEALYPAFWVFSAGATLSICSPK
UniProt Q15785: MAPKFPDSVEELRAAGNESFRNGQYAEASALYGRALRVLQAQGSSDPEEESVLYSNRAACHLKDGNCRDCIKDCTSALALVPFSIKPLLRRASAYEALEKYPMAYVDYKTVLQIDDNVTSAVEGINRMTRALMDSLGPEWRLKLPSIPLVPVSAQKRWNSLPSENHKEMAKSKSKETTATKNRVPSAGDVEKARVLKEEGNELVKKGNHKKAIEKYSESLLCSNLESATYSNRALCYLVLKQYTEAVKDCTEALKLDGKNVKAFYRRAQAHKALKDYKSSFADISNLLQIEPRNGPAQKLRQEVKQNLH
UniProt O15164: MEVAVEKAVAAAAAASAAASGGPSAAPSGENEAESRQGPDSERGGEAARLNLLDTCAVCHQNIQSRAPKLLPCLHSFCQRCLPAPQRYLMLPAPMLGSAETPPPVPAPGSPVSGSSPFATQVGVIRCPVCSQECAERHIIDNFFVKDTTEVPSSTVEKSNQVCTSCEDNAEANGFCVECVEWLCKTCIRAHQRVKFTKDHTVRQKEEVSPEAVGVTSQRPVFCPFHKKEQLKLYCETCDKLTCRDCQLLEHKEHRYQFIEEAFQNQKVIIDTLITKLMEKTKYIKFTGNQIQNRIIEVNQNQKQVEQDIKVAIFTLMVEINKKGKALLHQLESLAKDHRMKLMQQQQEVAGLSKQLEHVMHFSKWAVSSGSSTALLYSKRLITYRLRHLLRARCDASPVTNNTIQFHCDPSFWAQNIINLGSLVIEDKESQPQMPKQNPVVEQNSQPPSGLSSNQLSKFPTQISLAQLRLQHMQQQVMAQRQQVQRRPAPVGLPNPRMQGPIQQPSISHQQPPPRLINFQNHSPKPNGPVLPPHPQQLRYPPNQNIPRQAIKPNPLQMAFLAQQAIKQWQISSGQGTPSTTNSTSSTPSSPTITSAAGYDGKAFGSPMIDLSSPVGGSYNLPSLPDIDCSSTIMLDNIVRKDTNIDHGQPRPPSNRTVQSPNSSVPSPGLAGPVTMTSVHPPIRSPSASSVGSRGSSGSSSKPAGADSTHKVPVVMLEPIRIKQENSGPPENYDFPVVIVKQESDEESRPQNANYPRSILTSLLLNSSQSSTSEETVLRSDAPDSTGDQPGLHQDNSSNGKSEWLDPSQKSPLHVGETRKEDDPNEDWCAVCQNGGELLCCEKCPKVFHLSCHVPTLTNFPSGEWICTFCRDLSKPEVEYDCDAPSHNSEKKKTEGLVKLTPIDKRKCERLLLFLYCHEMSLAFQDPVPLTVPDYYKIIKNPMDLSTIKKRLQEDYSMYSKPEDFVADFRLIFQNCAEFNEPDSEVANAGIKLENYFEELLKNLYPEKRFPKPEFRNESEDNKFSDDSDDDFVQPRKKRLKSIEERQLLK
UniProt Q15645: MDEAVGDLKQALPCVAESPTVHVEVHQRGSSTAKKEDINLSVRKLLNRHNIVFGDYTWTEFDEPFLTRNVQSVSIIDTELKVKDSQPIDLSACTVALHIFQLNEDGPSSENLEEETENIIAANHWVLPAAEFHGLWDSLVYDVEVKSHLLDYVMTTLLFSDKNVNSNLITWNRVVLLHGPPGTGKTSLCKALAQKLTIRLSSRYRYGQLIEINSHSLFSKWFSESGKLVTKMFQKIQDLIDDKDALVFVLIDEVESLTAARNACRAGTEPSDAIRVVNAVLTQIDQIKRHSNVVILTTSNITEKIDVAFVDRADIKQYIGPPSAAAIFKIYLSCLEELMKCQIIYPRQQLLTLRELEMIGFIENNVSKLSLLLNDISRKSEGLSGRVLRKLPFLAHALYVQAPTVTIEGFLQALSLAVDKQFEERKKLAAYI
UniProt O75157: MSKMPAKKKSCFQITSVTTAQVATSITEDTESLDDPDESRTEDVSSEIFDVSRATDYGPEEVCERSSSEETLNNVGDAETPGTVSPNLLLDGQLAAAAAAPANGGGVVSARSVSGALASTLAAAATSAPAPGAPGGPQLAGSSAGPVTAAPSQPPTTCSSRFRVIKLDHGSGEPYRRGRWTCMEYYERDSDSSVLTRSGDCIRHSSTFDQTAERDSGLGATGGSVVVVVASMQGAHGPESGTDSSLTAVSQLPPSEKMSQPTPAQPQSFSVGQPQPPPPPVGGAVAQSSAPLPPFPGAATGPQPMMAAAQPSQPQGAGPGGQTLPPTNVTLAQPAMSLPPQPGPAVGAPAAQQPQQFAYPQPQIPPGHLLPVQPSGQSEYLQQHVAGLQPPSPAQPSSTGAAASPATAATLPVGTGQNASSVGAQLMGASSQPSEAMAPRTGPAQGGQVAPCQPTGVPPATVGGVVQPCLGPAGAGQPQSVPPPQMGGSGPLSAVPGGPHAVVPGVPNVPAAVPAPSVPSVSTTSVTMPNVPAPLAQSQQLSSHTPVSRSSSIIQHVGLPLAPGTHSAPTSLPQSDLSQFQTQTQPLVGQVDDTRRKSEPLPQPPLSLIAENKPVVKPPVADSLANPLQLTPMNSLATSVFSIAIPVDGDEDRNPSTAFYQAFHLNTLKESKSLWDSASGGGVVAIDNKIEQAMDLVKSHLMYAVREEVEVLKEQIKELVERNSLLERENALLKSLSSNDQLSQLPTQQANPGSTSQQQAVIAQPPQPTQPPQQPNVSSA
UniProt P48553, whole entry, looked up: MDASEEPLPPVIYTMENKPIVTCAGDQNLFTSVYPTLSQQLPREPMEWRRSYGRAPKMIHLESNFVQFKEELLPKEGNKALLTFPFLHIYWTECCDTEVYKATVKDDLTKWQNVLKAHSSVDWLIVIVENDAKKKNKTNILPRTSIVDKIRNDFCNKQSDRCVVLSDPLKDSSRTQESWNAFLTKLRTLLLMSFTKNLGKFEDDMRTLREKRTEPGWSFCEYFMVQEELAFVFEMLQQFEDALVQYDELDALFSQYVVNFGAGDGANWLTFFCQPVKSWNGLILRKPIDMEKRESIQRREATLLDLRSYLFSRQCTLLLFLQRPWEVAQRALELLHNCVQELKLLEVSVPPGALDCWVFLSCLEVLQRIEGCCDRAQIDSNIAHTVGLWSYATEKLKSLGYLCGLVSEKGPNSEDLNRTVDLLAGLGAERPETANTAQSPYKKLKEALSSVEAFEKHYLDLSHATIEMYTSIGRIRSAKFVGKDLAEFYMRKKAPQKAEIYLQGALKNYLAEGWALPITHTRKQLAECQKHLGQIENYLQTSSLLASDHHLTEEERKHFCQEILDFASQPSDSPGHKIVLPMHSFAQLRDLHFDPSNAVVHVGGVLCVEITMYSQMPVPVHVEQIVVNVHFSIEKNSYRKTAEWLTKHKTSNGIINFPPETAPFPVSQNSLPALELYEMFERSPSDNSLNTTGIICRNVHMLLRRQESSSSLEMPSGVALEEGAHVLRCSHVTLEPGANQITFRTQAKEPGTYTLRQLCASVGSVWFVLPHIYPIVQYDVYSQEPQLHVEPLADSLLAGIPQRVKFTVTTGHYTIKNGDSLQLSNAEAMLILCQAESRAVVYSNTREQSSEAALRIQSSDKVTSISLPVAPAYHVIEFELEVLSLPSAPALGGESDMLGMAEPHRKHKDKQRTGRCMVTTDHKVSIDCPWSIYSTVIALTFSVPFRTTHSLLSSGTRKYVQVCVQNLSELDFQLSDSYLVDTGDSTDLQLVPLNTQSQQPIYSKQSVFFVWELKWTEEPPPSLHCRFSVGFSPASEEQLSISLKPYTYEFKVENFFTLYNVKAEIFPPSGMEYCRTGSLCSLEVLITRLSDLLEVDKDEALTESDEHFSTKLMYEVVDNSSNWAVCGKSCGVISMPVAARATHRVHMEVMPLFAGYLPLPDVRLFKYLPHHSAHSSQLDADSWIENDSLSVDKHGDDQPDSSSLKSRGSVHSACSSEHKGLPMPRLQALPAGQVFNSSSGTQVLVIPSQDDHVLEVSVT
UniProt Q9NXH8: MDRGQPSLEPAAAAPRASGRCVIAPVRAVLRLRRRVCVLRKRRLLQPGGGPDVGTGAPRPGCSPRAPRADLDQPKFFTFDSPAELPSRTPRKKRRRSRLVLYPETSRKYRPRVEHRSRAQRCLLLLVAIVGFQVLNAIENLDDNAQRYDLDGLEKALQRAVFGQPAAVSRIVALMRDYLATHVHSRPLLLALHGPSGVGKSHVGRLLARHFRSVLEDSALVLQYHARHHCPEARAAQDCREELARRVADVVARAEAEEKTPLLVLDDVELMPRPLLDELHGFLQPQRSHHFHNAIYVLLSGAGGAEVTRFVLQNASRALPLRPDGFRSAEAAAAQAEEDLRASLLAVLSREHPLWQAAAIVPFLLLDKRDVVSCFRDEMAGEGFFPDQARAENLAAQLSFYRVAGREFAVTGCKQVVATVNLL
UniProt P20333, whole entry, looked up: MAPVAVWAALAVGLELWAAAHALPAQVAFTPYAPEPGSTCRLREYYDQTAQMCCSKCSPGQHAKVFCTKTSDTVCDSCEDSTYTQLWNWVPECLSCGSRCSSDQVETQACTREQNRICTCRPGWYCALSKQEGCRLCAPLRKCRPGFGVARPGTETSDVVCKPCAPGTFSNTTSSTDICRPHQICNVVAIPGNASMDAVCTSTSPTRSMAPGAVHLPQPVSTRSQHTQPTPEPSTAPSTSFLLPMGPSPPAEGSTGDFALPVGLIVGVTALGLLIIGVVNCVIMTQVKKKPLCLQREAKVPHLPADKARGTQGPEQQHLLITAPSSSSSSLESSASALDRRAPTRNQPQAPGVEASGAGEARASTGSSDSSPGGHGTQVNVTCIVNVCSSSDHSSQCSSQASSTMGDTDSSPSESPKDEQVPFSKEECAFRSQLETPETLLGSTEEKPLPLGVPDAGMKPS

The targets below were run with C1=CC(=CC=C1C2=NC3=C(N2)C=C(C=C3)C(=O)N)OC4=CC=C(C=C4)Cl (assay: log2 fold change, soluble protein after heating vs DMSO (PISA); higher = thermal stabilisation; K562 cells, 10 uM, 30 min; active = over 0.2 and 3.5 SD of the protein, either way, in both replicates (recomputed)).
Procedure, shortened: (§1)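 Values are thermal stability changes relative to control samples and are taken from duplicates. They are stated as log2 fold changes. Before quantification by TMTpro 16plex LC-MS/MS with equalised channel sums, K562 cells at 2×10^6 cells/mL were treated with 10 μM compound for 30 min, heated in aliquots for 3 min across 48°C-58°C, pooled, extracted in PBS with 0.5% NP-40 at 4°C, and centrifuged at 21,000xg for 90 min to give the soluble supernatant.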

log2 fold change, inactive:
TPT1 (UniProt P13693) 0.025
TRMT61B (UniProt Q9BVS5) 0.036
TOLLIP (UniProt Q9H0E2) -0.054
TOR1AIP2 (UniProt Q8NFQ8) -0.015
TPM3 isoform 4 (UniProt P06753) 0.066
TOR3A (UniProt Q9H497) 0.005
TOMM22 (UniProt Q9NS69) -0.027
TSC22D4 (UniProt Q9Y3Q8) -0.075
TSEN15 (UniProt Q8WW01) 0.045

The targets below were run with C1=CC2=C(C=CC(=C2)/C=C\3/C(=O)NC(=NCC4=CC=CS4)S3)N=C1 in the same assay as above.
Procedure, shortened: as §1

log2 fold change, inactive:
TRIM25 (UniProt Q14258) -0.052
TOMM34 (UniProt Q15785) 0.068
TRIP11 (UniProt Q15643) -0.118
TRIM24 (UniProt O15164) 0.013
TPP2 (UniProt P29144) -0.146
TSEN34 (UniProt Q9BSV6) 0.106
TRIAP1 (UniProt O43715) 0.08
TP53RK (UniProt Q96S44) -0.015
TRIP13 (UniProt Q15645) -0.001
TRIO (UniProt O75962) 0.04
TSC22D2 (UniProt O75157) 0.004
TRAPPC10 (UniProt P48553) 0.08
TRMT112 (UniProt Q9UI30) 0.047
TOMM70 (UniProt O94826) 0.026
TOMM40 (UniProt O96008) -0.068
TOP2B (UniProt Q02880) -0.035
TNIK isoform 6 (UniProt Q9UKE5) 0.057
TOR4A (UniProt Q9NXH8) -0.023
TOP1 (UniProt P11387) -0.097
TPM4, A0A2R8Y5V9 -0.034
TRAF6 (UniProt Q9Y4K3) -0.06
TRRAP (UniProt Q9Y4A5) -0.009
TOP3B (UniProt O95985) 0.008
TNFRSF1B (UniProt P20333) -0.005
TPT1 (UniProt P13693) 0.054
TRMT61B (UniProt Q9BVS5) -0.065
TOLLIP (UniProt Q9H0E2) 0.088
TOR1AIP2 (UniProt Q8NFQ8) 0.075
TPM3 isoform 4 (UniProt P06753) -0.106
TOR3A (UniProt Q9H497) -0.048
TOMM22 (UniProt Q9NS69) 0.067
TSC22D4 (UniProt Q9Y3Q8) -0.009
TSEN15 (UniProt Q8WW01) 0.083
